Results are given in words; binding and its absence hold for the method and conditions named. Some binding calls cover weakened binding; strength is not graded here. Sequences can lack the tags named with a protein.
What was measured:
PDGF-AA [1] = target: PDGF-AA (UniProt P04085); assay: native PAGE electromobility gel shift, equimolar 25 pmol; alone or together with VEGF-A165
PDGF-AA [2] = target: PDGF-AA (UniProt P04085); assay: native PAGE electromobility gel shift (FIG. 5)

binding (PDGF-AA [1]): binds | binding (PDGF-AA [2]): binds
B1: PDGFRαD123-PAS(200)-VEGFR1D2/R2D3 fusion protein (receptor)
chain: QLSLPSILPNENEKVVQLNSSFSLRCFGESEVSWQYPMSEEESSDVEIRNEENNSGLFVTVLEVSSASAAHTGLYTCYYNHTQTEENELEGRHIYIYVPDPDVAFVPLGMTDYLVIVEDDDSAIIPCRTTDPETPVTLHNSEGVVPASYDSRQGFNGTFTVGPYICEATVKGKKFQTIPFNVYALKATSELDLEMEALKTVYKSGETIVVTCAVFNNEVVDLQWTYPGEVKGKGITMLEEIKVPSIKLVYTLTVPEATVKDSGDYECAARQATREVKEMKKVTISVHEKGASPAAPAPASPAAPAPSAPAASPAAPAPASPAAPAPSAPAASPAAPAPASPAAPAPSAPAASPAAPAPASPAAPAPSAPAASPAAPAPASPAAPAPSAPAASPAAPAPASPAAPAPSAPAASPAAPAPASPAAPAPSAPAASPAAPAPASPAAPAPSAPAASPAAPAPASPAAPAPSAPAASPAAPAPASPAAPAPSAPAASDTGRPFVEMYSEIPEIIHMTEGRELVIPCRVTSPNITVTLKKFPLDTLIPDGKRIIWDSRKGFIISNATYKEIGLLTCEATVNGHLYKTNYLTHRQTNTIIDVVLSPSHGIELSVGEKLVLNCTARTELNVGIDFNWEYPSSKHQHKKLVNRDLKTQSGSEMKKFLSTLTIDGVTRSDQGLYTCAASSGLMTKKNSTFVRVHEKHHHHHHA
modifications: glycosylated (as purified from MEXi-293E medium)
